Values of other authors, collected in patent US20240226024A1 (Empros Pharma AB, priority 2021, published 2024).
For at least one compound, name, drawing or mass did not settle the structure.

Settings: highest dose, placebo group lost 2 kg

Structure (SMILES): CCCCCCCCCCCCCCCC(=O)N[C@@H](CCC(=O)NCCCC[C@H](NC(=O)[C@H](C)NC(=O)[C@H](C)NC(=O)[C@H](CCC(N)=O)NC(=O)CNC(=O)[C@H](CCC(=O)O)NC(=O)[C@H](CC(C)C)NC(=O)[C@H](Cc1ccc(O)cc1)NC(=O)[C@H](CO)NC(=O)[C@H](CO)NC(=O)[C@@H](NC(=O)[C@H](CC(=O)O)NC(=O)[C@H](CO)NC(=O)[C@@H](NC(=O)[C@H](Cc1ccccc1)NC(=O)[C@@H](NC(=O)CNC(=O)[C@H](CCC(=O)O)NC(=O)[C@H](C)NC(=O)[C@@H](N)Cc1cnc[nH]1)[C@@H](C)O)[C@@H](C)O)C(C)C)C(=O)N[C@@H](CCC(=O)O)C(=O)N[C@@H](Cc1ccccc1)C(=O)N[C@H](C(=O)N[C@@H](C)C(=O)N[C@@H](Cc1c[nH]c2ccccc12)C(=O)N[C@@H](CC(C)C)C(=O)N[C@H](C(=O)N[C@@H](CCCNC(=N)N)C(=O)NCC(=O)N[C@@H](CCCNC(=N)N)C(=O)NCC(=O)O)C(C)C)[C@@H](C)CC)C(=O)O [liraglutide]
- Weight lost after one year: 8 kg
